Experimental data reported in PMC12718634.
No constants are given. Whether binding was seen depends on the method and setting. Binding seen in cells or lysates may run through a third protein. A yes stands for co-enrichment or nearness to the bait. Other partners may have been found.

The chains behind the UniProt entries cited, without tags or fusion partners.
UniProt P49023: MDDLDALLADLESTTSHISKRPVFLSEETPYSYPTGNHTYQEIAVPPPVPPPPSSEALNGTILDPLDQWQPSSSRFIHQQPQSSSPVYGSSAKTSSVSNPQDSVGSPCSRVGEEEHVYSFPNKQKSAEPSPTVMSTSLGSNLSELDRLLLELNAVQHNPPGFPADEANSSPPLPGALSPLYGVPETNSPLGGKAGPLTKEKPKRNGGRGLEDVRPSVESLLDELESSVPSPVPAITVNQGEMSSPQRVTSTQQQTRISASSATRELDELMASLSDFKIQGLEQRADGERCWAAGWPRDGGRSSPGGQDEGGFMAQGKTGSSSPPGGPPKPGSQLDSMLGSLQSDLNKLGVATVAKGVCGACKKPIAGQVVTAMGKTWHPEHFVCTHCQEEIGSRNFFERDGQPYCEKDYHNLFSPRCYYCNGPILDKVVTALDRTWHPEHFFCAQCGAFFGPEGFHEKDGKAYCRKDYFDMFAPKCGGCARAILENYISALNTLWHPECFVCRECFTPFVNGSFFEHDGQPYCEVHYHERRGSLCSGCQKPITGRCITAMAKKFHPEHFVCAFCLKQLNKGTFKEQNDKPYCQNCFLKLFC
UniProt Q8CIN4: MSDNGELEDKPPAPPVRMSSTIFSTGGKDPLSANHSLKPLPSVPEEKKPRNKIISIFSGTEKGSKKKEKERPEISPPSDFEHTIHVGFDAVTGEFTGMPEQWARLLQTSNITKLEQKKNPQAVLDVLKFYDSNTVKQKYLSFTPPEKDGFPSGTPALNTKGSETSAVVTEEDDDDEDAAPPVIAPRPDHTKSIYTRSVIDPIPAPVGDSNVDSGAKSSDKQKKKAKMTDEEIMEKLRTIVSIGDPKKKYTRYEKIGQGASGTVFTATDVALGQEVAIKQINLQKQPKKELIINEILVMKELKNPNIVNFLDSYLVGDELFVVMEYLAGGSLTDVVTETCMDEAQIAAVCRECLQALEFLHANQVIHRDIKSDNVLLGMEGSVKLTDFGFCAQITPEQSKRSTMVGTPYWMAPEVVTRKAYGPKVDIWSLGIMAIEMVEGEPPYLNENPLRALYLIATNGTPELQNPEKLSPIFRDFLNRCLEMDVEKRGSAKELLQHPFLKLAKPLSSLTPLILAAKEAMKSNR
UniProt Q71LX4: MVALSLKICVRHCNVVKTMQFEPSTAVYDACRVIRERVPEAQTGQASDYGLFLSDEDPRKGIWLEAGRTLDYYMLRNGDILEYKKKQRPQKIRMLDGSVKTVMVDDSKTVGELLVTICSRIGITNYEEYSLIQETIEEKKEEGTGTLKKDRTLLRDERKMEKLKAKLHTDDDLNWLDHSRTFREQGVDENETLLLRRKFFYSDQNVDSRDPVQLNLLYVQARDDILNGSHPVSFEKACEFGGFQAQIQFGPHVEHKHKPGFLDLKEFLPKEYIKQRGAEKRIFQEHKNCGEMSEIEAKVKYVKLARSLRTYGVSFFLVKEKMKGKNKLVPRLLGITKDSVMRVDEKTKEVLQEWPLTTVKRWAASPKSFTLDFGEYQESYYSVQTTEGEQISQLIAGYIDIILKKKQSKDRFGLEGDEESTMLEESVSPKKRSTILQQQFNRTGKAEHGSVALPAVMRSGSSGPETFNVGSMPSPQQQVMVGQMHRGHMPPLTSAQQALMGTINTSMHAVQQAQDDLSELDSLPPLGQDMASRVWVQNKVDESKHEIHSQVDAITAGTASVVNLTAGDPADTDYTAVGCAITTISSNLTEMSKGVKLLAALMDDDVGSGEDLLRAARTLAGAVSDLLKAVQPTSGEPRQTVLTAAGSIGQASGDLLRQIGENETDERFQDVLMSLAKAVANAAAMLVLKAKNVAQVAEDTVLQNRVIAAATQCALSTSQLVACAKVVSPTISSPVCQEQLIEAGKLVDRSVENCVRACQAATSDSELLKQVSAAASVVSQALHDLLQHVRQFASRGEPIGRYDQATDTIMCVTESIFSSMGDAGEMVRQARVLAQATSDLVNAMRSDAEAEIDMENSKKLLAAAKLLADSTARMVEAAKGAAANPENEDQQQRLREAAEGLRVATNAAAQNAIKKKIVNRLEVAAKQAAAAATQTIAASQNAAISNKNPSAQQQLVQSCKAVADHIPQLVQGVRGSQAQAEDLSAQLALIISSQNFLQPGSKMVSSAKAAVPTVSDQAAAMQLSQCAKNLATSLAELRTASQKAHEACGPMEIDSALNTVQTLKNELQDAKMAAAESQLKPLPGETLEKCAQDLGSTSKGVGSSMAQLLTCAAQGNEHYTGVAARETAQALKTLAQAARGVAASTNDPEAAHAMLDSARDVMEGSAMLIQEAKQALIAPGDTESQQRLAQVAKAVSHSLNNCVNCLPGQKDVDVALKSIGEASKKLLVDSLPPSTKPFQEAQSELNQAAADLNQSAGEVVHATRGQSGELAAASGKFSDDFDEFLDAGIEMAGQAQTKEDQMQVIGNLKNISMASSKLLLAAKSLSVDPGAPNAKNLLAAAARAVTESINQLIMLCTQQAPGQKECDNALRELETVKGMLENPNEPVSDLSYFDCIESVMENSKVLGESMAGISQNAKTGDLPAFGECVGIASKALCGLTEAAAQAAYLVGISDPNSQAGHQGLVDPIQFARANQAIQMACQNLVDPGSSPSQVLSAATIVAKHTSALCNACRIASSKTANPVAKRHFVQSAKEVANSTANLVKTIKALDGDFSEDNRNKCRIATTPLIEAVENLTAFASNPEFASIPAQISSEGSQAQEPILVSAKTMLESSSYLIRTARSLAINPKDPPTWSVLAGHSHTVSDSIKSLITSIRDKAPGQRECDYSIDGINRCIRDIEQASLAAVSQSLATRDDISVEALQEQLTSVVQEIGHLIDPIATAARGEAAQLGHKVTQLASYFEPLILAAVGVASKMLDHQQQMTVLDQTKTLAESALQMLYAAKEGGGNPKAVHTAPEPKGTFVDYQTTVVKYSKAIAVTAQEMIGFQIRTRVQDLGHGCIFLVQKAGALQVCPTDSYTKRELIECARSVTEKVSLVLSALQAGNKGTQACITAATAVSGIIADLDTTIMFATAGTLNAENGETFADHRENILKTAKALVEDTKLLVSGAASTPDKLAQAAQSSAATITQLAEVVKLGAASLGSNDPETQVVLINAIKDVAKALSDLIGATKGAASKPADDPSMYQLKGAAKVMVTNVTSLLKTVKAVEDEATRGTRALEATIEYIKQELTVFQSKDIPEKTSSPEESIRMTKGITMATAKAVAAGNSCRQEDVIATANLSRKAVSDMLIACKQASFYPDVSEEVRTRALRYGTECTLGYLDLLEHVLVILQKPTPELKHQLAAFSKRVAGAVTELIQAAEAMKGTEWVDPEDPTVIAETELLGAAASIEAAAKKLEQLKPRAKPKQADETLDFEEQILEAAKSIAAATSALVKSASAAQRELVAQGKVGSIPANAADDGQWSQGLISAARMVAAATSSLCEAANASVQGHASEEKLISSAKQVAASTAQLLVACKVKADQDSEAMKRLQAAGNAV
UniProt P26039: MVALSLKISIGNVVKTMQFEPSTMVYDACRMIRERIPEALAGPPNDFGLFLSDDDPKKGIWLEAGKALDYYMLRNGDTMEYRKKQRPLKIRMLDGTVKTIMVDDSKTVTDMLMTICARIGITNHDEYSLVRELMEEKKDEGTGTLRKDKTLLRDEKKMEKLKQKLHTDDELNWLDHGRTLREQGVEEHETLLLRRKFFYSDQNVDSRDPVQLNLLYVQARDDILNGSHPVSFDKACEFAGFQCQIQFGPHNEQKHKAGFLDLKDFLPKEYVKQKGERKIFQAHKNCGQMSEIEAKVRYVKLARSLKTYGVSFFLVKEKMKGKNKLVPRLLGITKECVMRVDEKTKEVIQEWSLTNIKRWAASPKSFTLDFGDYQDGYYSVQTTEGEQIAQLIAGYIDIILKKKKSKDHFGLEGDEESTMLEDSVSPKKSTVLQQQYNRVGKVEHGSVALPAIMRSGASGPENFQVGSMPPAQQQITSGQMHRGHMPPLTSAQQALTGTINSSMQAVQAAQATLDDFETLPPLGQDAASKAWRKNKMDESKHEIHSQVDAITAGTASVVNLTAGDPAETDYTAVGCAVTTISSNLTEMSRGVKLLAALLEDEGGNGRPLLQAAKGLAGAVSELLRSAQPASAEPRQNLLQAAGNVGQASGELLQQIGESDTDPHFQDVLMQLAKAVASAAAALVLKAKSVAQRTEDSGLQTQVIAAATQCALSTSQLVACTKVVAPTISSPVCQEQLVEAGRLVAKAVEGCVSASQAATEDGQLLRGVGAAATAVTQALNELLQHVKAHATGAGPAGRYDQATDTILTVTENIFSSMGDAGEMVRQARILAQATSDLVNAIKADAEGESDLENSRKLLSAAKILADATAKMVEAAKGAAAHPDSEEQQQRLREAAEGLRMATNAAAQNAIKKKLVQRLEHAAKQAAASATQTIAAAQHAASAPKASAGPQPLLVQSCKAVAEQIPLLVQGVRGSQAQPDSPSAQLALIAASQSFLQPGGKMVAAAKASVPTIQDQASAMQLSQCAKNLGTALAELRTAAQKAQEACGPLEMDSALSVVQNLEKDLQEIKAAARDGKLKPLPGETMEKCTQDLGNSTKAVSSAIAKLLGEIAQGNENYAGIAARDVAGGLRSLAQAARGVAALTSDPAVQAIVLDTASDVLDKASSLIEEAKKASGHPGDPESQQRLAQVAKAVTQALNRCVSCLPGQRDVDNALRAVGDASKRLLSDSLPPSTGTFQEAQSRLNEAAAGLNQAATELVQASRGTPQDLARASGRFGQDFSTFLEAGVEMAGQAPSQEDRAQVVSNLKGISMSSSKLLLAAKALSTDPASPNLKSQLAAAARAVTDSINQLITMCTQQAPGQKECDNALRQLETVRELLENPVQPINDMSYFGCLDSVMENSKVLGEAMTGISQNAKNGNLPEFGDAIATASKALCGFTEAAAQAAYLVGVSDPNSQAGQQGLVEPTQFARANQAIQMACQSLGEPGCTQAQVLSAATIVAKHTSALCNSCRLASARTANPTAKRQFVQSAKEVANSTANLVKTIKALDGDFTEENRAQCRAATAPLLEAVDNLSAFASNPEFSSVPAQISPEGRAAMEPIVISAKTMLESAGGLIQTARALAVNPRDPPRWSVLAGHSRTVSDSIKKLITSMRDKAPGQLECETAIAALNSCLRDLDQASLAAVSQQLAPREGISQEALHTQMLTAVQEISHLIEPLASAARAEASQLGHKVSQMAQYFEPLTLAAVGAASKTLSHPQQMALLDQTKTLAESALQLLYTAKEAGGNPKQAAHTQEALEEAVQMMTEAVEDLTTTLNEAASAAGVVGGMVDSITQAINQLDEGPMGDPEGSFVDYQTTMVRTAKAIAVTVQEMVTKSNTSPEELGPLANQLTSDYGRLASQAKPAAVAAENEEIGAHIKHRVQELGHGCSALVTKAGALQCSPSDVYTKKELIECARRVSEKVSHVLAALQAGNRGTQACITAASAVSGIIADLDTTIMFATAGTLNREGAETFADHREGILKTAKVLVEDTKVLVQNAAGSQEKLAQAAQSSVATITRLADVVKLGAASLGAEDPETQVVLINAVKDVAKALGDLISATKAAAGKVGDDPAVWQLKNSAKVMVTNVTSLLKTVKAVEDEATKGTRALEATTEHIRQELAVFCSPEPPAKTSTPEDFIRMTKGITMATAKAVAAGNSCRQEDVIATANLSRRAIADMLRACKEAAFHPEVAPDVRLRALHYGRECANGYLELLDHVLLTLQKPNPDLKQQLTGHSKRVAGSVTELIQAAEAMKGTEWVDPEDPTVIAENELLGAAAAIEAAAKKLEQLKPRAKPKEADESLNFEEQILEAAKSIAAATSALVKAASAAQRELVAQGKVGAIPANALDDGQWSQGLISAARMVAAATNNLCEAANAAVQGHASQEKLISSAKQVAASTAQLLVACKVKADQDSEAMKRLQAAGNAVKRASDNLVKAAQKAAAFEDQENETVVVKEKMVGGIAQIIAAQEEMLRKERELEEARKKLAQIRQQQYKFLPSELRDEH

B1: ERC1 (protein, UniProt Q99MI1 1-1120)
chain: MYGSARSVGKVEPSSQSPGRSPRLPRSPRLGHRRTNSTGGSSGNSVGGGSGKTLSMENIQSLNAAYATSGPMYLSDHENVGAETPKSTMTLGRSGGRLPYGVRMTAMGSSPNIASSGVASDTIAFGEHHLPPVSMASTVPHSLRQARDNTIMDLQTQLKEVLRENDLLRKDVEVKESKLSSSMNSIKTFWSPELKKERALRKDEASKITIWKEQYRVVQEENQHMQMTIQALQDELRIQRDLNQLFQQDSSSRTGEPCVAELTEENFQRLHAEHERQAKELFLLRKTLEEMELRIETQKQTLNARDESIKKLLEMLQSKGLSAKATEEDHERTRRLAEAEMHVHHLESLLEQKEKENNMLREEMHRRFENAPDSAKTKALQTVIEMKDSKISSMERGLRDLEEEIQMLKSNGALSSEEREEEMKQMEVYRSHSKFMKNKVEQLKEELSSKDAQGEELKKRAAGLQSEIGQVKQELSRKDTELLALQTKLETLTNQFSDSKQHIEVLKESLTAKEQRAAILQTEVDALRLRLEEKETMLNKKTKQIQDMAEEKGTQAGEIHDLKDMLDVKERKVNVLQKKIENLQEQLRDKEKQMSSLKERVKSLQADTTNTDTALTTLEEALADKERTIERLKEQRDRDEREKQEEIDTYKKDLKDLREKVSLLQGDLSEKEASLLDIKEHASSLASSGLKKDSRLKTLEIALEQKKEECLKMESQLKKAHEATLEARASPEMSDRIQQLEREISRYKDESSKAQTEVDRLLEILKEVENEKNDKDKKIAELESLTSRQVKDQNKKVANLKHKEQVEKKKSAQMLEEARRREDSLSDSSQQLQDSLRKKDDRIEELEEALRESVQITAEREMVLAQEESARTNAEKQVEELLMAMEKVKQELESMKAKLSSTQQSLAEKETHLTNLRAERRKHLEEVLEMKQEALLAAISEKDANIALLELSSSKKKTQEEVAALKREKDRLVQQLKQQTQNRMKLMADNYEDDHFRSSRSNQTNHKPSPDQIIQPLLELDQNRSKLKLYIGHLTALCHDRDPLILRGLTPPASYNADGEQAAWENELQQMTQEQLQNELEKVEGDNAELQEFANTILQQIADHCPDILEQVVNALEESS

target: GFP-BirA*-Paxillin (UniProt P49023); experiment: proximity labelling; Bio-ID: GFP-BirA*-Paxillin as bait, stably expressed in B16-F1 control and Cyri-b KO cells on laminin; biotin or DMSO for 16 h; biotinylated proteins captured on NeutrAvidin agarose, on-bead digestion, mass spectrometry (label-free quantification)

binding, binds:
PAK2 (from UniProt Q8CIN4 1-524), talin-2 (from UniProt Q71LX4 1-2375), talin-1 (from UniProt P26039 1-2541), B1
